# Measured values published in US20260109944A1, “Culture Method for Organoids” (Koninklijke Nederlandse Akademie Van Wetenschappen, priority 2014, published 2026).
# For at least one compound, name, drawing or mass did not settle the structure.
# Test system: pancreatic ductal cells from healthy human control sample (C366)
# Assay: Expansion of pancreatic organoids
# Assay type: cell-based
# Conditions: Forskolin 10 uM; passaged once a week; also in Wnt medium that failed beyond five weeks without forskolin
smiles,measurement,value
"C=C[C@@]1(C)CC(=O)[C@]2(O)[C@@]3(C)[C@@H](O)CCC(C)(C)[C@@H]3[C@H](O)[C@H](OC(C)=O)[C@@]2(C)O1 [FSK, forskolin]",passaging of pancreatic organoids,allows passaging of pancreatic organoids beyond five weeks
